Assay results from PubChem BioAssay AID504834 (National Center for Advancing Translational Sciences (NCATS), 2011).
The whole screen tested about 320,000 compounds, of which about 22,000 (6.9%) were called active. The inconclusive results got no clear call from the source; some entries with a clear call stand among them for comparison. Calls come from the whole dose curve; as a rule, active = well fitted inhibition curve with a large enough effect; inconclusive = small, poorly fitted or top-dose-only effect, or another doubt; inactive = no such curve, though single readings can be large or run the other way. Potencies of inconclusive entries are doubtful fits and often do not repeat.

Experiment: Primary qHTS for delayed death inhibitors of the malarial parasite plastid, 96 hour incubation
Conditions: P. falciparum luciferase reporter growth; series mostly up to 28.7 µM
In short: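 Delayed-death screen, second-generation endpoint: infected erythrocytes, 2% hematocrit, 0.05% parasitemia final; 96 hours at 37 C, 5% CO2; luciferase detection reagent; luminescence decrease equals reduced growth.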
Potency is the fitted concentration of half-maximal effect.

SMILES | Potency
O=C(Cn1ccc(NC(=O)OCc2ccccc2)nc1=O)NCCCN1CCCC1=O | inconclusive: 0.0657 µM [inhibitor, full curve, poor fit]
CN(C)S(=O)(=O)c1cccc(NC(=O)CSc2nnnn2-c2ccccc2)c1 | inconclusive: 16.5 µM [inhibitor, single point]
CCc1cc2c(SCC(=O)c3cccs3)ncnc2s1 | inactive
CCOc1ccc(NC(=O)N2CCC(n3nnc4cc(C)ccc43)CC2)cc1 | inconclusive: 13.1 µM [inhibitor, single point]
OC(C#CCN1CCCC1)(c1ccccc1)c1cccc(F)c1 (stereo not drawn) | inactive
CCOC(=O)c1sc(=S)n(-c2cc(F)ccc2F)c1N | inactive
CCOC(=O)CC1COc2ccccc2N1C(=O)c1ccc(F)cc1 (stereo not drawn) | inconclusive: 18.5 µM [inhibitor, single point]
CN1CC(=O)N(CC(=O)NCc2ccc3c(c2)OCO3)C1=O | inactive
O=[N+]([O-])c1cccc(-c2ccc(C(=S)N3CCOCC3)o2)c1 | inconclusive: 9.28 µM [inhibitor, single point]
CCCC(CCC)C(=O)OC1C[C@H]2CC[C@@H](C1)[N+]2(C)C (stereo partly drawn) | active: 4.26 µM
NC(=O)C1=C[C@@H](c2ccc(Br)cc2)C[C@@H](OCCCCO)O1 | inactive
O=C(Nc1cccc([N+](=O)[O-])c1)c1cccc(C(=O)Nc2cccc([N+](=O)[O-])c2)c1 | inconclusive: 5.22 µM [inhibitor, partial curve, poor fit]
N#C/C(=C\c1c[nH]c2ccc(Br)cc12)c1ccccn1 | active: 9.28 µM
CC(=O)c1ccccc1OC(=O)c1ccc([N+](=O)[O-])o1 | inactive
O=C(NN=C(c1ccccc1)c1ccccc1)C(CCl)C1CCCCC1 (stereo not drawn) | inconclusive: 16.5 µM [inhibitor, single point]
CN(C(=O)c1cccc(S(=O)(=O)N2CCCC2)c1)C1CCCCC1 | inactive
O=C(Nc1cccc(Cl)c1)N1CCSc2cc(Cl)ccc21 | active: 13.1 µM
c1ccc(CCc2nc3ccccc3[nH]2)cc1 | active: 5.86 µM
CN1CCN(C(=O)C(C(=O)c2ccc(F)cc2)n2ccccc2=O)CC1 (stereo not drawn) | active: 2.33 µM
Cc1occc1-c1nnc(SCC(=O)N2CCc3ccccc32)o1 | active: 5.22 µM
Cc1cccc(C)c1NC(=O)CNC(=O)CCCc1c[nH]c2ccccc12 | inconclusive: 10.4 µM [inhibitor, single point]
Cc1ccc(S(=O)(=O)n2ccc(-c3ccc(OCc4c(F)cccc4Cl)cc3)n2)cc1 | inactive
Cc1ccc2[nH]c(=O)c(CN(CC3CCCO3)C(=S)NCc3ccco3)cc2c1 (stereo not drawn) | inconclusive: 11.7 µM [inhibitor, single point]

2 entries picked at random from those above, as already listed:
SMILES | Potency
CN1CC(=O)N(CC(=O)NCc2ccc3c(c2)OCO3)C1=O | inactive
CCOC(=O)c1sc(=S)n(-c2cc(F)ccc2F)c1N | inactive
